Data reported in paper PMC7819943, “Rice protein-binding microarrays: a tool to detect cis-acting elements near promoter regions in rice”.
This is one part of the list.

The chains behind the UniProt entries cited, without tags or fusion partners.
UniProt Q0JBA9, entry or part of it: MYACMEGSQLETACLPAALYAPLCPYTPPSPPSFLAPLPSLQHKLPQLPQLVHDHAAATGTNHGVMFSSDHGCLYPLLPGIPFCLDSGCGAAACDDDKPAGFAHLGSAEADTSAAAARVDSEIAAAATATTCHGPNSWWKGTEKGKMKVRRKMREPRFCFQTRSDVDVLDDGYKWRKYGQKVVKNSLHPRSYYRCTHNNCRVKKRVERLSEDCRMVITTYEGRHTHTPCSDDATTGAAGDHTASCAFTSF

These sequences were tested against OsWRKY34 (Oryza sativa, UniProt Q0JBA9 1-250) (assay: protein-binding microarray (RPBM); PBS, 2% BSA, 51.3 ng/ul salmon testes DNA, 50 uM zinc acetate, 200 nM TF, 25 C, 1 h; high values mean tight binding). Settings: protein: recombinant; tags: N-terminal polyhistidine and DsRed monomer fusion (pET32a); label: CyDye5-dUTP incorporated in the synthesized complementary strand; 3' TTTTT single-stranded linker to array surface; dsDNA, one strand shown.
Summary of the method: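 A custom Agilent array was converted to double-stranded form by primer extension with Cy5-dUTP and blocked with 2% BSA. Protein at 200 nM in PBS with 2% BSA, salmon testes DNA and 50 µM zinc acetate was applied for 1 h at 25 °C, followed by washing. The proteins were polyhistidine–DsRed N-terminal fusions of transcription factors, expressed in E. coli BL21-CodonPlus and Ni–NTA-purified. The binding signal is per-feature fluorescence intensity (arbitrary units) from an Axon 4000B scanner.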
“ATTTGAGGGCTGGATGACTAGGTATAAAATGGGGCGGGCTCGGAGTCACCTAGTGCAG” was tested, and the binding signal was 9280 fluorescence intensity (a.u.).
In the case of “TGTTTTCCGCTCGTTTTATCCGTAGCCCTAAGGCTGTGTTCGGAGTCACCTAGTGCAG”, the binding signal is reported as 12800 fluorescence intensity (a.u.).
In the case of “ATGCCACATATTTCGTCCGTTTGAGTTTATTTTTTACATGCGGAGTCACCTAGTGCAG”, the binding signal is reported as 12300 fluorescence intensity (a.u.).
“TCAGCTATGCACATTGAGCCTCACTTCTTGTTATCAATTACGGAGTCACCTAGTGCAG” was tested, and the binding signal was 8210 fluorescence intensity (a.u.).
“GGGGTTTTGCAACTATTTATTGGTCCTTCTGGATCTCGGACGGAGTCACCTAGTGCAG” was tested, and the binding signal was 8100 fluorescence intensity (a.u.).
For “CCCAGTTTTATTTCTGCAGTTCATTTTATGAGAGCATTCTCGGAGTCACCTAGTGCAG”, the binding signal was 8120 fluorescence intensity (a.u.).
In the case of “GGCCATTTTGTACATCAATTCTTGAGTCTTCAGTTTGTTACGGAGTCACCTAGTGCAG”, the binding signal is reported as 8620 fluorescence intensity (a.u.).
For “GTGGCTTGGGCAATTACGCCACAGCTCACTGAATTCGATCCGGAGTCACCTAGTGCAG”, the binding signal was 9410 fluorescence intensity (a.u.).
“GCTGAACCTGCCGCCCAGCCCGTCGCGGCTGCCGTTCATCCGGAGTCACCTAGTGCAG” was tested, and the binding signal was 8800 fluorescence intensity (a.u.).
For “GGCTTCCGCCACACTTGACCGACGCCCCTCCGCTGGCCAGCGGAGTCACCTAGTGCAG”, the binding signal was 9130 fluorescence intensity (a.u.).
For “ATAGTGATATGTTTCAATGTGCGTCTAGAGTGTGTTTCATCGGAGTCACCTAGTGCAG”, the binding signal was 8290 fluorescence intensity (a.u.).
With “AAAATTCTGACTATCACGTACACTATTTACATTCATATTTCGGAGTCACCTAGTGCAG” the binding signal was 8180 fluorescence intensity (a.u.).
For “TTTTTAACTAACGTTTGACCACTCGTCTTATTTAAAAATTCGGAGTCACCTAGTGCAG”, the binding signal was 8220 fluorescence intensity (a.u.).
With “TAGTAGGTCCCACCATCTCTCTTTTCACATTCATCTCTCCCGGAGTCACCTAGTGCAG” the binding signal was 8250 fluorescence intensity (a.u.).
With “TTTTCTTCTGACGCCAACAATTGGTAAGCTTCATTGGTTCCGGAGTCACCTAGTGCAG” the binding signal was 8650 fluorescence intensity (a.u.).
With “ACTTTGTTTACACGGTGGTTCTCTCCTTTTCTTCTTCTCACGGAGTCACCTAGTGCAG” the binding signal was 8480 fluorescence intensity (a.u.).
With “CGCCGTCACTGCATGGTGATCTTCATCACCGTCGCCTCACCGGAGTCACCTAGTGCAG” the binding signal was 8390 fluorescence intensity (a.u.).
In the case of “TCCAAGAAAGCCGTTGACCAATTTACATGACATCAAACTACGGAGTCACCTAGTGCAG”, the binding signal is reported as 12000 fluorescence intensity (a.u.).
For “ATGGTCAAACATGTGTTCAAAATTCAACGCGTCATCTATTCGGAGTCACCTAGTGCAG”, the binding signal was 8320 fluorescence intensity (a.u.).
For “GAGATTAGGGGTAGGGTTGGAAAAATAAATATGGGGCTTTCGGAGTCACCTAGTGCAG”, the binding signal was 12100 fluorescence intensity (a.u.).
In the case of “GATTATTATTGACGGTGACTATTTGACCTCCTTTGCTATACGGAGTCACCTAGTGCAG”, the binding signal is reported as 9190 fluorescence intensity (a.u.).
“AGCACCAGGTGTTTATTAGCTTCTCTCCACGTCTTCTTCCCGGAGTCACCTAGTGCAG” was tested, and the binding signal was 8700 fluorescence intensity (a.u.).
For “CACTTTCCGGGCTTGAAATTAATTTCTTTTGGTTAGTTTACGGAGTCACCTAGTGCAG”, the binding signal was 10300 fluorescence intensity (a.u.).
“TCCCGCCGCGACCCAAGTCTACTGCTTGCTTTCCTCCTCTCGGAGTCACCTAGTGCAG” was tested, and the binding signal was 11900 fluorescence intensity (a.u.).
For “CGCGCTTTATTTTCCAGTAATTAATGTACTCGATTATGTACGGAGTCACCTAGTGCAG”, the binding signal was 8060 fluorescence intensity (a.u.).
“ATTAACACTAATTTACATCATTCTCAGCCTGTTTTCACTTCGGAGTCACCTAGTGCAG” was tested, and the binding signal was 9540 fluorescence intensity (a.u.).
“CACGGGCCGACTCTTATCGCCCGGAGCCGGTCTCGTCTCACGGAGTCACCTAGTGCAG” was tested, and the binding signal was 8170 fluorescence intensity (a.u.).
In the case of “GCTCAGCTCTTCACTTCTGCTGCATTCACACCACCACACTCGGAGTCACCTAGTGCAG”, the binding signal is reported as 9310 fluorescence intensity (a.u.).
With “GATTGTTACCATGTTTTCAGCGGCGCGCTCAGGGACCACTCGGAGTCACCTAGTGCAG” the binding signal was 12300 fluorescence intensity (a.u.).
“TGCAATCCTCTGTTTTACACTTCAATTCCTGTCAGAATCCCGGAGTCACCTAGTGCAG” was tested, and the binding signal was 8080 fluorescence intensity (a.u.).
For “GCCTGACTTATCTCTTCACTCGGCTTGCTGGAATGACCTCCGGAGTCACCTAGTGCAG”, the binding signal was 10100 fluorescence intensity (a.u.).
“GGATATGGTTGTTGCTGAATTGTTTAATTTTCGTAGAAAGCGGAGTCACCTAGTGCAG” was tested, and the binding signal was 11500 fluorescence intensity (a.u.).
With “TTTCATCCCTACACCAACCCAATCCTTTGCGTTTTCGAATCGGAGTCACCTAGTGCAG” the binding signal was 10700 fluorescence intensity (a.u.).
With “TTTGAGAAGGGCTTTGCTGCTGTGATTGGTTGTTCTTGGTCGGAGTCACCTAGTGCAG” the binding signal was 9030 fluorescence intensity (a.u.).
“AGTTTTTTTACCGCGTTATTTTTTTTCGAAGATTATTTTACGGAGTCACCTAGTGCAG” was tested, and the binding signal was 10100 fluorescence intensity (a.u.).
In the case of “TCGATTTGACAGTTCGTGCGGTGCGGCTCCCAATAATTTCCGGAGTCACCTAGTGCAG”, the binding signal is reported as 8130 fluorescence intensity (a.u.).
“TTTGTATGACTGTCTGTGTGCGATCCCATCTGAAAATCCTCGGAGTCACCTAGTGCAG” was tested, and the binding signal was 8300 fluorescence intensity (a.u.).
For “CAAGTAAGACCACCCAACGATTCATACCTATAGCCGCCACCGGAGTCACCTAGTGCAG”, the binding signal was 8050 fluorescence intensity (a.u.).
“GTTGATTTGTTGTGTGTGTTCTCTCCCCTAGGGGATTTTGCGGAGTCACCTAGTGCAG” was tested, and the binding signal was 10100 fluorescence intensity (a.u.).
With “TCCTCTCATCACCACCACCACCCCACCTCCTTCTCTCCCTCGGAGTCACCTAGTGCAG” the binding signal was 8100 fluorescence intensity (a.u.).
“ATCTTGTGCAGTACTCCATCCGTTTCACAATATAATCATTCGGAGTCACCTAGTGCAG” was tested, and the binding signal was 8650 fluorescence intensity (a.u.).
With “CTCTCTTTTCCTTTTCTAATTTTAGATTTTATTTTATTTTCGGAGTCACCTAGTGCAG” the binding signal was 8600 fluorescence intensity (a.u.).
